This passage reports binding results from publication PMC8605242.

By UniProt entry, the sequences of proteins in these tests, tags left out.
UniProt Q96DA6: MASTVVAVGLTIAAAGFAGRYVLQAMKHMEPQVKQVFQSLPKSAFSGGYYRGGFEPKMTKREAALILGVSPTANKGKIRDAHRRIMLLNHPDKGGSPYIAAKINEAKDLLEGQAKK
UniProt Q99595: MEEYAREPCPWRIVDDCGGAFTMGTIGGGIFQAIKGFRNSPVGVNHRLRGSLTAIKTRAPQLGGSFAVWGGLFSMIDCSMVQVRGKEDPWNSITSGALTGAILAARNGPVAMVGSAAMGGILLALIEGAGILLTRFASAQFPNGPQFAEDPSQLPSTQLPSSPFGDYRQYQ
UniProt O60830: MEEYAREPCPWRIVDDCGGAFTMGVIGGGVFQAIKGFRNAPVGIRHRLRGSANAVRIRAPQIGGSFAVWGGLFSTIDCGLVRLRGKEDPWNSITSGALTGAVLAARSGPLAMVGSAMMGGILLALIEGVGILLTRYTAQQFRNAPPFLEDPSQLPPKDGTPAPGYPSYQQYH

These are yes or no findings as the source states them, for the method shown. Binding seen in cells or lysates may run through a third protein. Some results given as binding are weak or reduced against the parent protein; the word gives no strength. Tags and fused reporters may be left off the sequences shown.

Assay [1] has as its target T1, hexahistidine tagged Magmas (human) (UniProt Q9Y3D7).
T1 sequence: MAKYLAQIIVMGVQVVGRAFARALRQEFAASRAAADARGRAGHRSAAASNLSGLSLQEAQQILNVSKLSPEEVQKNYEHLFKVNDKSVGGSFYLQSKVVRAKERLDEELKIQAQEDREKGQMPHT
In words: pull-down; hexahistidine tagged Magmas variants on Ni-NTA beads; lysate of 2 mg HEK293T mitochondria in 25 mM HEPES-KOH pH 7.5, 80 mM KCl, 5 mM EDTA, 20 mM imidazole, 10% glycerol, 1 mM PMSF, 0.5% NP-40; 12 h, 4 °C; washes with 0.25% NP-40; immunoblot; only the target purified. (In general: In western blotting, separated proteins are transferred to a membrane and probed.)

In assay [2] the target is T2, hexahistidine tagged Magmas-1 (human) (UniProt I3L3T0).
T2 sequence: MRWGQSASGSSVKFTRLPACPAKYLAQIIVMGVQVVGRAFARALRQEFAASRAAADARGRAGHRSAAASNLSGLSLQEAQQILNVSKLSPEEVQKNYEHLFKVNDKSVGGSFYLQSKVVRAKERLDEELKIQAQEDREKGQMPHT
The description is as above.

Consider “DnaJC19 (endogenous) (from UniProt Q96DA6 1-116)”, for which the binding result in assay [1] and in assay [2] was “binds” in each case.

As to Tim17a (from UniProt Q99595 1-171), the binding entry in assay [1] is “binds”; in assay [2] it was “binds weakly”.

Turning to Tim17b (from UniProt O60830 1-172), the binding result in assay [1] and in assay [2] was “binds” each time.
